This note sets out measurements from publication doi:10.1101/2021.05.05.442573.

What all share (assay): cross-linking
Test [1] has as its target ParB(A102C, H133C)-HT (B. subtilis) (UniProt P26497).
In test [2] the target is ParB(T22C)-HT (B. subtilis) (UniProt P26497).
Test [3] has as its target ParB(T22C, E111Q)-HT (B. subtilis) (UniProt P26497).
For test [4], the target named is ParB(R105C, H133C, S278C)-HT in combination with E111Q (B. subtilis) (UniProt P26497).
Test [5] has as its target ParB(R105C, L134C)-HT (B. subtilis) (UniProt P26497).
For test [6], the target named is ParB(T22C, E78Q)-HT (B. subtilis) (UniProt P26497).
The target in test [7] is ParB(R105C, H133C, E111Q)-HT (B. subtilis) (UniProt P26497).
Test [8] addresses ParB(R105C, H133C, E78Q)-HT (B. subtilis) (UniProt P26497).
Test [9] addresses ParB(R105C, H133C, S278C)-HT in combination with E78Q (B. subtilis) (UniProt P26497).
Test [10] has as its target ParB(A102C, L134C)-HT (B. subtilis) (UniProt P26497).
Test [11] deals with ParB(R105C, H133C)-HT (B. subtilis) (UniProt P26497).

No constants are given. Whether binding was seen depends on the method and setting. Binding seen in cells or lysates may run through a third protein. Some entries that bind do so weakly or less than the wild type.

B1: ParB(A102C, H133C)-HT (protein, UniProt P26497 1-282)
chain: MAKGLGKGINALFNQVDLSEETVEEIKIADLRPNPYQPRKHFDDEALAELKESVLQHGILQPLIVRKSLKGYDIVAGERRFRAAKLAGLDTVPAIVRELSECLMREIALLENLQREDLSPLEEAQAYDSLLKCLDLTQEQLAKRLGKSRPHIANHLRLLTLPENIQQLIAEGTLSMGHGRTLLGLKNKNKLEPLVQKVIAEQLNVRQLEQLIQQLNQNVPRETKKKEPVKDAVLKERESYLQNYFGTTVNIKRQKKKGKIEIEFFSNEDLDRILELLSERES
With B1, the binding result in test [1] is given as “binds”.

B2: ParB(T22C)-HT (protein, UniProt P26497 1-282)
chain: MAKGLGKGINALFNQVDLSEECVEEIKIADLRPNPYQPRKHFDDEALAELKESVLQHGILQPLIVRKSLKGYDIVAGERRFRAAKLAGLDTVPAIVRELSEALMREIALLENLQREDLSPLEEAQAYDSLLKHLDLTQEQLAKRLGKSRPHIANHLRLLTLPENIQQLIAEGTLSMGHGRTLLGLKNKNKLEPLVQKVIAEQLNVRQLEQLIQQLNQNVPRETKKKEPVKDAVLKERESYLQNYFGTTVNIKRQKKKGKIEIEFFSNEDLDRILELLSERES
As for B2, the binding result in [2] is “binds weakly”.

B3: ParB(T22C, E111Q)-HT (protein, UniProt P26497 1-282)
chain: MAKGLGKGINALFNQVDLSEECVEEIKIADLRPNPYQPRKHFDDEALAELKESVLQHGILQPLIVRKSLKGYDIVAGERRFRAAKLAGLDTVPAIVRELSEALMREIALLQNLQREDLSPLEEAQAYDSLLKHLDLTQEQLAKRLGKSRPHIANHLRLLTLPENIQQLIAEGTLSMGHGRTLLGLKNKNKLEPLVQKVIAEQLNVRQLEQLIQQLNQNVPRETKKKEPVKDAVLKERESYLQNYFGTTVNIKRQKKKGKIEIEFFSNEDLDRILELLSERES
With B3, the binding result in [3] is given as “binds”.

B4: ParB(R105C, H133C, S278C)-HT in combination with E111Q (protein, UniProt P26497 1-282)
chain: MAKGLGKGINALFNQVDLSEETVEEIKIADLRPNPYQPRKHFDDEALAELKESVLQHGILQPLIVRKSLKGYDIVAGERRFRAAKLAGLDTVPAIVRELSEALMCEIALLQNLQREDLSPLEEAQAYDSLLKCLDLTQEQLAKRLGKSRPHIANHLRLLTLPENIQQLIAEGTLSMGHGRTLLGLKNKNKLEPLVQKVIAEQLNVRQLEQLIQQLNQNVPRETKKKEPVKDAVLKERESYLQNYFGTTVNIKRQKKKGKIEIEFFSNEDLDRILELLCERES
B4: in test [4], the binding entry is “binds”.

B5: ParB(R105C, L134C)-HT (protein, UniProt P26497 1-282)
chain: MAKGLGKGINALFNQVDLSEETVEEIKIADLRPNPYQPRKHFDDEALAELKESVLQHGILQPLIVRKSLKGYDIVAGERRFRAAKLAGLDTVPAIVRELSEALMCEIALLENLQREDLSPLEEAQAYDSLLKHCDLTQEQLAKRLGKSRPHIANHLRLLTLPENIQQLIAEGTLSMGHGRTLLGLKNKNKLEPLVQKVIAEQLNVRQLEQLIQQLNQNVPRETKKKEPVKDAVLKERESYLQNYFGTTVNIKRQKKKGKIEIEFFSNEDLDRILELLSERES
Consider B5, for which the binding entry in test [5] is on record as “binds weakly”.

B6: ParB(T22C, E78Q)-HT (protein, UniProt P26497 1-282)
chain: MAKGLGKGINALFNQVDLSEECVEEIKIADLRPNPYQPRKHFDDEALAELKESVLQHGILQPLIVRKSLKGYDIVAGQRRFRAAKLAGLDTVPAIVRELSEALMREIALLENLQREDLSPLEEAQAYDSLLKHLDLTQEQLAKRLGKSRPHIANHLRLLTLPENIQQLIAEGTLSMGHGRTLLGLKNKNKLEPLVQKVIAEQLNVRQLEQLIQQLNQNVPRETKKKEPVKDAVLKERESYLQNYFGTTVNIKRQKKKGKIEIEFFSNEDLDRILELLSERES
For B6, the binding entry in [6] is “binds”.

B7: ParB(R105C, H133C, E111Q)-HT (protein, UniProt P26497 1-282)
chain: MAKGLGKGINALFNQVDLSEETVEEIKIADLRPNPYQPRKHFDDEALAELKESVLQHGILQPLIVRKSLKGYDIVAGERRFRAAKLAGLDTVPAIVRELSEALMCEIALLQNLQREDLSPLEEAQAYDSLLKCLDLTQEQLAKRLGKSRPHIANHLRLLTLPENIQQLIAEGTLSMGHGRTLLGLKNKNKLEPLVQKVIAEQLNVRQLEQLIQQLNQNVPRETKKKEPVKDAVLKERESYLQNYFGTTVNIKRQKKKGKIEIEFFSNEDLDRILELLSERES
As for B7, the binding entry in test [7] is “binds”.

B8: ParB(R105C, H133C, E78Q)-HT (protein, UniProt P26497 1-282)
chain: MAKGLGKGINALFNQVDLSEETVEEIKIADLRPNPYQPRKHFDDEALAELKESVLQHGILQPLIVRKSLKGYDIVAGQRRFRAAKLAGLDTVPAIVRELSEALMCEIALLENLQREDLSPLEEAQAYDSLLKCLDLTQEQLAKRLGKSRPHIANHLRLLTLPENIQQLIAEGTLSMGHGRTLLGLKNKNKLEPLVQKVIAEQLNVRQLEQLIQQLNQNVPRETKKKEPVKDAVLKERESYLQNYFGTTVNIKRQKKKGKIEIEFFSNEDLDRILELLSERES
As to B8, the binding result in test [8] is recorded as “binds”.

B9: ParB(R105C, H133C, S278C)-HT in combination with E78Q (protein, UniProt P26497 1-282)
chain: MAKGLGKGINALFNQVDLSEETVEEIKIADLRPNPYQPRKHFDDEALAELKESVLQHGILQPLIVRKSLKGYDIVAGQRRFRAAKLAGLDTVPAIVRELSEALMCEIALLENLQREDLSPLEEAQAYDSLLKCLDLTQEQLAKRLGKSRPHIANHLRLLTLPENIQQLIAEGTLSMGHGRTLLGLKNKNKLEPLVQKVIAEQLNVRQLEQLIQQLNQNVPRETKKKEPVKDAVLKERESYLQNYFGTTVNIKRQKKKGKIEIEFFSNEDLDRILELLCERES
B9: the binding result in test [9] was “binds”.

B10: ParB(A102C, L134C)-HT (protein, UniProt P26497 1-282)
chain: MAKGLGKGINALFNQVDLSEETVEEIKIADLRPNPYQPRKHFDDEALAELKESVLQHGILQPLIVRKSLKGYDIVAGERRFRAAKLAGLDTVPAIVRELSECLMREIALLENLQREDLSPLEEAQAYDSLLKHCDLTQEQLAKRLGKSRPHIANHLRLLTLPENIQQLIAEGTLSMGHGRTLLGLKNKNKLEPLVQKVIAEQLNVRQLEQLIQQLNQNVPRETKKKEPVKDAVLKERESYLQNYFGTTVNIKRQKKKGKIEIEFFSNEDLDRILELLSERES
Regarding B10, the binding entry in test [10] is “binds”.

B11: ParB(R105C, H133C)-HT (protein, UniProt P26497 1-282)
chain: MAKGLGKGINALFNQVDLSEETVEEIKIADLRPNPYQPRKHFDDEALAELKESVLQHGILQPLIVRKSLKGYDIVAGERRFRAAKLAGLDTVPAIVRELSEALMCEIALLENLQREDLSPLEEAQAYDSLLKCLDLTQEQLAKRLGKSRPHIANHLRLLTLPENIQQLIAEGTLSMGHGRTLLGLKNKNKLEPLVQKVIAEQLNVRQLEQLIQQLNQNVPRETKKKEPVKDAVLKERESYLQNYFGTTVNIKRQKKKGKIEIEFFSNEDLDRILELLSERES
Consider B11, for which the binding entry in [11] was “binds weakly”.
